Test results from article PMC6459899, “Pleiotropic Clostridioides difficile Cyclophilin PpiB Controls Cysteine-Tolerance, Toxin Production, the Central Metabolism and Multiple Stress Responses” (Frontiers in Pharmacology, 2019).
These are yes or no findings as the source states them, for the method shown. In cells and extracts the contact can be indirect. A yes stands for co-enrichment or nearness to the bait. Other partners may have been found.

Target: N-terminally StrepII-tagged PpiB of C. difficile (CdPpiB) (C. difficile str. 630Δerm)
Test: affinity purification with mass spectrometry; in vivo cross-linking with 0.125 % formaldehyde (30 min, 37°C) in C. difficile 630ΔermΔppiB + PpiB-NStrep; StrepII-PpiB and cross-linked partners purified on Strep-Tactin; decrosslinking at 95°C, SDS-PAGE, seven bands cut out, LC-MS; hits with at least 15% coverage and two or more unique peptides; ribosomal proteins discarded

Binder | binding
LdhA, D-lactate dehydrogenase (enzyme, UniProt Q5U922 1-332) MKILVFGARDYEEPVIKKWSEEHKDVQVDIYPENMTEENVVKAKGYDGISIQQTNYIDNPYIYETLKDAGVKVIASRTAGVDMIHFDLVNENGLIVTNVPSYSPNAIAELAVTQAMNLLRKTPLVKKKVCEGDYRWIAELLGTEVRSITVGVIGTGKIGATSAKLFKGLGANVIAFDQYPNSDLNDILTYKDSLEDLLKEADLITLHTPLLEGTKHMINKDTLAIMKDGAYIVNTGRGGLINTGDLIEALESGKIRAAALDTFETEGLFLNKKMNPGELTDPEINKLLSMEQVIFTHHLGFFTSTAIENIVYSSLSSAVEVIKTGTATNRVN | binds
HadA, isocaprenoyl-CoA:2-hydroxyisocaproate CoA-transferase (enzyme, UniProt Q5U921 1-399) MLLEGVKVVELSSFIAAPCCAKMLGDWGAEVIKIEPIEGDGIRVMGGTFKSPASDDENPMFELENGNKKGVSINVKSKEGVEILHKLLSEADIFVTNVRVQALEKMGIAYDQIKDKYPGLIFSQILGYGEKGPLKDKPGFDYTAYFARGGVSQSVMEKGTSPANTAAGFGDHYAGLALAAGSLAALHKKAQTGKGERVTVSLFHTAIYGMGTMITTAQYGNEMPLSRENPNSPLMTTYKCKDGRWIQLALIQYNKWLGKFCKVINREYILEDDRYNNIDSMVNHVEDLVKIVGEAMLEKTLDEWSALLEEADLPFEKIQSCEDLLDDEQAWANDFLFKKTYDSGNTGVLVNTPVMFRNEGIKEYTPAPKVGQHTVEVLKSLGYDEEKINNFKDSKVVRY | binds
PduL, phosphate propanoyltransferase (enzyme, UniProt Q187N2 1-209) MENLLNEIVEEVITRVKKEAFIEVEASGRHVHLSREDVDKLFGEGYTLTKLKDLSQPGQYACKERVTITGPKGSIKNVVVLGPCRNETQVEISLTDGSTLGLKAPIKQSGDLEGTLSIKISTQYGEVELDKGLMVAKRHIHMTPKDAEKFNVCDKEIVEAKVMGQRPLTFDDVVIRVSDSFKTYMHIDYDEANACGYSKGTVAKIIKKA | binds
